Primary screen of a compound library

From ChEMBL document CHEMBL3988442, “University of Dundee, Small-Polar-MMV Screening Library” (2021).

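Viability assay of Plasmodium falciparum sporozoites; the read-out is not stated. The concentration is filed as 10 mM, unlikely as a test dose, so the dose is not known. Direction is inferred from retests: higher values go with lower viability. Strong results were mostly tested again. Size under these conditions: about 34,000 compounds, about 280 of them at 50% or above in at least one test.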

The filed quantity is “Percent Effect” (%).
The controls that fix the scale are not given in the record; negative values are as filed.
Compounds were drawn at random from those tested, without regard to their results.
Two or more numbers in one place are separate tests of the same structure; such repeats can differ widely.

Cc1ccc(C#N)c(N2CCC(c3nccn3CCN(C)C)CC2)n1 read 4.077%.
Cc1cccc(CN2CCC3(CCCN(C(=O)NC4CC4)C3)C2=O)n1.O=C(O)C(F)(F)F (stereo unspecified) read 11.06%.
CSCCC(=O)N1CCC(Oc2cc(C)ccc2F)(C(=O)O)CC1 read -4.255%.
CC(C)COC(=O)N1CC(=O)N(Cc2ccco2)CC(O)C1 (stereo unspecified) read -26.98%.
CC(C)c1nc(C(=O)N2CCOCC2CC(=O)c2ccco2)c[nH]1 (stereo unspecified) read -14.99%.
Cc1ccc(C(CCNCCN(C)C)C2CCOC(C)(C)C2)cc1.O=C(O)C(=O)O (stereo unspecified) read 8.694% and -4.496%.
O=C(Cc1cccc(F)c1)N1CCc2ncnc(NC3CC3)c2CC1.O=C(O)C(F)(F)F read 10.45%.
CC(C)CC(=O)N1CC(=O)c2sc(Nc3ccc(F)cc3F)nc2C1 read 8.891%.
Cc1cc(-n2cncn2)ccc1C(=O)N(CC(F)(F)F)C(C)C read -0.1112%.
O=C(O)C(F)(F)F.[H][C@@]12CCN(Cc3ccc(C)o3)C[C@@]1([H])[C@H](C(=O)NC1CC1)CCO2 read 14.63%.
[H][C@]12CNC[C@@]1(C(=O)NCc1c(C)noc1C)CN(C(=O)COC)C2 read -1.053%.
COCCN1CCC(CNC(=O)C2(c3cc(C)cc(C)c3)CCC2)C1 (stereo unspecified) read -3.341%.
Cc1cc(N2CCC(N(C)C(=O)c3ccccc3)CC2)nc(C)n1 read 0.8264%.
COc1cc(C(=O)N2CCC(c3n[nH]c(C)n3)CC2)cc(OC)c1C read -0.8748%.
O=C(O)C(F)(F)F.O=C(O)C(F)(F)F.c1cc(CN2CCC3(CCOCC3COCC3CC3)CC2)ccn1 (stereo unspecified) read 11.98%.
CCn1cc(CN2CCCN(C(=O)c3sccc3C#N)CC2)cn1 read 4.688%.
CC(C)CN1CCC2(C=C(C(=O)N(C)C)c3ccccc32)CC1.O=C(O)C(F)(F)F read 3.152%.
COc1cccc(N2CCN(CCC(=O)NC3CCCC3)CC2)c1 read 1.015%.
Cc1cc(C)c(CNC(=O)C2CCN(c3cnccn3)CC2)c(=O)[nH]1 read 0.1959%.
Cc1cnn(CCNCc2nc(Cc3ccccc3)no2)c1 read 0.1649%.
CSCCCNC(=O)Nc1cccc(-c2nccn2C)c1 read -6.495%.
COc1ccccc1CC(=O)N1CCC(NCc2ccc(C)o2)CC1 read 11.71%.
O=C(O)C(F)(F)F.[H][C@@]12CN(CC3CCCCC3)C[C@]1([H])OCCN2c1ncc(F)cn1 read -6.754%.
Cc1nc(CN2CCC3(CCCN(Cc4ccncc4)C3)C2=O)cs1.O=C(O)C(F)(F)F.O=C(O)C(F)(F)F.O=C(O)C(F)(F)F (stereo unspecified) read 19.39%.
CC(=O)N1CCN(C(=O)c2csc(-c3ccc(C)cc3C)n2)CC1 read 17.61%.
CC(C(=O)N1CCN(Cc2ccc(C#N)cc2)CC1)n1ccnc1 (stereo unspecified) read 4.535%.
CCN(Cc1cccc2c1OCO2)C(=O)NCc1ccccn1 read 3.781%.
COC(=O)c1cccn1C1CCN(Cc2cnc3ccccn23)CC1 read -7.157%.
Cc1cc(N2CCC(Cc3cnccn3)C2)ncn1 (stereo unspecified) read -4.284%.
Cc1cc(=O)n(CC(=O)NCCC(C)C)c(-c2cccc(Cl)c2)n1 read 5.889%.
Cc1nc(CN(C)C2CCN(Cc3cccc4c3OCCO4)C2)no1 (stereo unspecified) read -0.3061%.
O=C(c1ccccc1F)N1CCOC(c2nc(-c3ncccn3)no2)C1 (stereo unspecified) read -11.13%.
CC(C)c1cc(O)nc(C2CCCN2C(=O)C(C)(C)C)n1 (stereo unspecified) read 3.277%.
NC(=O)CN1CCOCC(Cc2ccccc2)C1 (stereo unspecified) read 8.616%.
Cc1cccc(N2CC3(CCN(Cc4nccn4C)C3)CC2=O)c1.O=C(O)C(F)(F)F (stereo unspecified) read -2.517%.
Cc1[nH]ncc1C(=O)N1CCN(CC(O)C(C)(C)C)CC1 (stereo unspecified) read 7.89%.
Cc1cc(C)n(CC(=O)N2CCC(c3nc(C)no3)CC2)n1 read 0.224%.
Cc1ccc(Oc2cc(F)ccc2O[C@@H]2CCC[C@@H](N)[C@H]2O)cc1 read 4.026%.
Cn1cc(CN2CCC[C@]3(C[C@@H](Oc4ccccn4)CO3)C2)cn1.O=C(O)C(F)(F)F.O=C(O)C(F)(F)F read 12.93%.
CC(C)(C(N)=O)N1CCN(C(=O)c2ccn(-c3cccc(Cl)c3)n2)CC1 read 6.066%.
O=C(O)C(F)(F)F.O=C1CC2(CCN(CC3CC3)C2)CN1c1cccc(F)c1 (stereo unspecified) read -4.383%.

Some entries from above, unchanged:

{"structure": "CCN(Cc1cccc2c1OCO2)C(=O)NCc1ccccn1", "effect": 3.781}
{"structure": "COC(=O)c1cccn1C1CCN(Cc2cnc3ccccn23)CC1", "effect": -7.157}
{"structure": "Cc1cccc(N2CC3(CCN(Cc4nccn4C)C3)CC2=O)c1.O=C(O)C(F)(F)F", "stereo": "stereo unspecified", "effect": -2.517}